Assay results published in US12630620 (dated 2026).
No constants are given. Whether binding was seen depends on the method and setting. Some binding calls cover weakened binding; strength is not graded here. One block for each binder: values may come before it.

Biological target: T1, commercial GDF15 recombinant protein (R&D, 9279-GD) (UniProt Q99988 197-308)
T1 chain: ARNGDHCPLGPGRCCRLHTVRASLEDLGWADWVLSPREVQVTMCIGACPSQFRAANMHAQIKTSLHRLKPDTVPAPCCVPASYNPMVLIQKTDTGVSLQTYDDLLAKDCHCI
Assay: SPR; GDF15 recombinant protein immobilised

binding: binds
B1: anti-GDF15 neutralizing monoclonal antibody G2 (antibody, V domains shown)
VH: QVQLQQSGAELARPGASVKLSCKASGYTFTDYYINWVKQRTGQGLEWIGEIYPGSGNTYYNEKFKGKATLTADKSSSTAYMQLSSLTSEDSAVYFCARVRALLRPLAMDYWGQGTSVTVSS
VL: QIVLSQSPAILSASPGEKVTMTCRASSSVSYMHWYQQKPGSSPKPWIYATSNLASGVPARFSGSGSGTSYSLTISRVEAEDAATYYCQQWSSNPPFTFGSGTKLEIK

binding: binds
B2: anti-GDF15 neutralizing monoclonal antibody G1 (antibody, V domains shown)
VH: DVQLQESGPGLVKPSQSLSLTCTVTGYSITSAYAWNWIRQFPGNKLEWMGYISYSGSTSYNPSLKSRISITRDTSKNQFFLQFNSVTTEDTATYYCARGGDAEDYWGQGTTLTVSS
VL: DIQMTQSPASLSVSVGETVTITCRASENIYSNLAWFQQKQGKSPQLLVYVATNLVDGVPSRFSGSGSGTQYSLKINSLQSEDFGTYYCQHFWGTPWTFGGGTKLEIK
